# Article PMC7554884, “Small Molecule Inhibitors of DYRK1A Identified by Computational and Experimental Approaches” (International Journal of Molecular Sciences, 2020)
# Molecular target: T1, DYRK1A(h) (Homo sapiens, UniProt Q13627)
# T1 construct: purchased Eurofins Scientific Inc. Korea (contract assay service)
# Assay: In vitro enzymatic assay (Eurofins, radiometric 33P-ATP)
# Format: biochemical
# Experimental: Enzymatic assays were performed by Eurofins Scientific Inc. Korea (Brussels, Belgium). […] The reaction was initiated by the addition of the MgATP mix. After incubation for 40 min at room temperature, the reaction was stopped by the addition of 3% phosphoric acid solution. Then, 10 μL of the reaction was then spotted onto a P30 filtermat and washed three times for 5 min in 75 mM phosphoric acid and once in methanol prior to drying and scintillation counting. […] All assays were performed in duplicate, and the average IC50 value was reported.
structure (smiles),measurement,value
"O=C1NC(=O)C(c2ccccc2[N+](=O)[O-])=C1Nc1ccc(O)c(Cl)c1 [SB-415286, 3-((3-chloro-4-hydroxyphenyl)amino)-4-(2-nitrophenyl)-1H-pyrrole-2,5-dione, reference compound]",IC50,445 nM
